Test results as given in article PMC2662408.

Biological target: Woc (Drosophila (endogenous in embryos))
Experiment: co-IP; 30 µl nuclear extract of early Drosophila embryos (0–12 h, TRAX) with α-HP1c (2G2), α-Woc or buffer overnight at 4°C in BC200; protein A/G sepharose; washed with BC300; western blotting

binding: binds
B1: HP1c (protein, UniProt Q9VCU6 1-237)
chain: MVKNEPNFVVERIMDKRITSEGKVEYYIKWRGYTSADNTWEPEENCDCPNLIQKFEESRAKSKKRGEKKPKCEEIQKLRGYERGLELAEIVGATDVTGDIKYLVRWQFCDEFDLVPSAQIVEKDPQMLIDYFQKMAPYSRHIAMRMKGVPEELRLAASRTSYPHISSAPVEVPPEVDQSAELAGHLGGIAPQVDQAPQHHAPMDLANDTDDLASVSYSIPVPGVGDIAIDVPMAENQ

Results are given in words; binding and its absence hold for the method and conditions named. Binding seen in cells or lysates may run through a third protein. A result given as binding can be weak or reduced; the word gives no strength.
